These are yes or no findings as the source states them, for the method shown. In cells and extracts the contact can be indirect. Some results given as binding are weak or reduced against the parent protein; the word gives no strength. Tags and fused reporters may be left off the sequences shown.

Protein sequences, listed by entry. Tags and fused reporters are not part of them.
UniProt Q99836: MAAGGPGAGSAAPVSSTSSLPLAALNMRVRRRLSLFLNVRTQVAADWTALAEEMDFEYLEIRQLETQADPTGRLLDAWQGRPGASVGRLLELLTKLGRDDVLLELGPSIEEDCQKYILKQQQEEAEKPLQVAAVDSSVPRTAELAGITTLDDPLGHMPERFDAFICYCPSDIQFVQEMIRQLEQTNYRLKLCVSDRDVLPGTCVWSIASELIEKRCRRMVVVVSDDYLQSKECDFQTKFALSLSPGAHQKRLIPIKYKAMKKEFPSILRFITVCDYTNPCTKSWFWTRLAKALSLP

The target in assay [1] is T1, IRAK-2 (IRAK-2α; IRAK-2-MyC expression construct) (human) (UniProt O43187).
T1 sequence: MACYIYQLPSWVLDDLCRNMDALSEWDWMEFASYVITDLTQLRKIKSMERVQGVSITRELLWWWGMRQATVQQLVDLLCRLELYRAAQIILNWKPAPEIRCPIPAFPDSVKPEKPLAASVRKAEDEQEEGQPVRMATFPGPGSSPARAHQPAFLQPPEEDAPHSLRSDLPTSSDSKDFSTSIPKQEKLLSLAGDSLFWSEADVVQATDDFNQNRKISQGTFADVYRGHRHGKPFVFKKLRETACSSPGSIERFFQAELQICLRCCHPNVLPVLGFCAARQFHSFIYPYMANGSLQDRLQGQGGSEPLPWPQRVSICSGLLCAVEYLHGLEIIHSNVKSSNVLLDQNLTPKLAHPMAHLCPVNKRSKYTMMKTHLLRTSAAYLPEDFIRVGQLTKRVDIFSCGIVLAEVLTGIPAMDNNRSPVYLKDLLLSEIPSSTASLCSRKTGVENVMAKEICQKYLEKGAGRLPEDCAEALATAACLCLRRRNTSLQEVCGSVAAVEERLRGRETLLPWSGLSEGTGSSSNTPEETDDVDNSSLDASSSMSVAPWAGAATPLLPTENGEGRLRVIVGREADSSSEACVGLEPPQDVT
Kind of assay: coimmunoprecipitation from transfected cell lysates.

In assay [2] the target is T2, IL-1 receptor type I (Flag-IL-1RI) (human, UniProt P14778 18-569).
T2 construct: not shown: Flag tag from pCMV-1-Flag expression vector
T2 sequence (looked up): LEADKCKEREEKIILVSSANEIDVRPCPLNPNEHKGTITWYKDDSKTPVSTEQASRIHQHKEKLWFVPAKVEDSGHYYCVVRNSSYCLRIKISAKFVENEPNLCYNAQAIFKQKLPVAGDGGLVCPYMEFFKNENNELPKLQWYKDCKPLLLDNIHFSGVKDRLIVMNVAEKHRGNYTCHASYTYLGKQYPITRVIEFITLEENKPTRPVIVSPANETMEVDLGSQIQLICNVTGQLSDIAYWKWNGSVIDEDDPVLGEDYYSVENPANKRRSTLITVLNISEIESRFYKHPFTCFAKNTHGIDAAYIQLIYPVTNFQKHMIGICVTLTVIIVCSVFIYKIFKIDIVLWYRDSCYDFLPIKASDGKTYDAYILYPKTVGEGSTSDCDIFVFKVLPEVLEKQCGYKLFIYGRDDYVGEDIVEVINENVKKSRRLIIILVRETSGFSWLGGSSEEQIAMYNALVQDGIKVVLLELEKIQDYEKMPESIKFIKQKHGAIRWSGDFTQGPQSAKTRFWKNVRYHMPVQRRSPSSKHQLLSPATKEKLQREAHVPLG
Kind of assay: coimmunoprecipitation from transfected 293/293T cell lysates. The method, then: The total amount of DNA was kept constant. 24-36 hours after transfection, cells were lysed in 0.5 ml buffer (1% NP40, 150 mM NaCl, 50 mM Tris, 1 mM EDTA and protease inhibitors cocktail). Cell lysates were adjusted to 0.7 M NaCl and the indicated antibodies were added for 1 to 4 hours. Immune complexes were precipitated by the addition of protein-G-Sepharose (Sigma). After extensive washing, the Sepharose heads were boiled in sample buffer and the eluted proteins fractionated by SDS-PAGE. Subsequent protein immunoblotting was performed as described (Chinnaiyan, A., et al., Cell 81:505-12 (1995)).

Assay [3] concerns the target T1, IRAK-2 (IRAK-2α; IRAK-2-MyC expression construct) (human). The assay can be described thus: coimmunoprecipitation, coexpressed in 293T cells.

Regarding “MyD88 (AU1-MyD88) (from UniProt Q99836 1-296)”, the binding entry in assay [1] is on record as “binds”.

B1: IRAK-2 (1-96) (protein, not shown: small tags and cut ends)
chain: MACYIYQLPSWVLDDLCRNMDALSEWDWMEFASYVITDLTQLRKIKSMERVQGVSITRELLWWWGMRQATVQQLVDLLCRLELYRAAQIILNWKPA
Take B1: the binding result in assay [2] is listed as “binds”.

B2: IRAK-2 (IRAK-2α; IRAK-2-MyC expression construct) (enzyme, not shown: small tags and cut ends)
chain: MACYIYQLPSWVLDDLCRNMDALSEWDWMEFASYVITDLTQLRKIKSMERVQGVSITRELLWWWGMRQATVQQLVDLLCRLELYRAAQIILNWKPAPEIRCPIPAFPDSVKPEKPLAASVRKAEDEQEEGQPVRMATFPGPGSSPARAHQPAFLQPPEEDAPHSLRSDLPTSSDSKDFSTSIPKQEKLLSLAGDSLFWSEADVVQATDDFNQNRKISQGTFADVYRGHRHGKPFVFKKLRETACSSPGSIERFFQAELQICLRCCHPNVLPVLGFCAARQFHSFIYPYMANGSLQDRLQGQGGSEPLPWPQRVSICSGLLCAVEYLHGLEIIHSNVKSSNVLLDQNLTPKLAHPMAHLCPVNKRSKYTMMKTHLLRTSAAYLPEDFIRVGQLTKRVDIFSCGIVLAEVLTGIPAMDNNRSPVYLKDLLLSEIPSSTASLCSRKTGVENVMAKEICQKYLEKGAGRLPEDCAEALATAACLCLRRRNTSLQEVCGSVAAVEERLRGRETLLPWSGLSEGTGSSSNTPEETDDVDNSSLDASSSMSVAPWAGAATPLLPTENGEGRLRVIVGREADSSSEACVGLEPPQDVT
Turning to B2, the binding entry in assay [2] was “binds”.

B3: TRAF6 (298-522), dominant negative version of TRAF6 (protein, UniProt Q9Y4K3 289-522, looked up, not shown: small tags and cut ends)
chain: ISEVRNFQETIHQLEGRLVRQDHQIRELTAKMETQSMYVSELKRTIRTLEDKVAEIEAQQCNGIYIWKIGNFGMHLKCQEEEKPVVIHSPGFYTGKPGYKLCMRLHLQLPTAQRCANYISLFVHTMQGEYDSHLPWPFQGTIRLTILDQSEAPVRQNHEEIMDAKPELLAFQRPTIPRNPKGFGYVTFMHLEALRQRTFIKDDTLLVRCEVSTRFDMGSLRREGFQPRSTDAGV
Turning to B3, in assay [3], the binding result is “binds”.
